These are yes or no findings as the source states them, for the method shown. Some entries that bind do so weakly or less than the wild type.
Molecular target: human CD137 on CHOK1-hCD137 cells (human) (UniProt Q07011)
Test: flow cytometry on cells; receptor blocking assay: 2 x 10^5 CHOK1-hCD137 cells per well with CD137L-hFc-Biotin and serially diluted anti-CD137 antibody, 4 °C for 1 h, FACS buffer (PBS + 2% FBS); detected with streptavidin-Alexa Fluor 488; only the binder purified

Sequences of proteins named here, by UniProt entry; tags and fusion partners are left off. Residues count along the entry.
UniProt Q07011, residues 24-255: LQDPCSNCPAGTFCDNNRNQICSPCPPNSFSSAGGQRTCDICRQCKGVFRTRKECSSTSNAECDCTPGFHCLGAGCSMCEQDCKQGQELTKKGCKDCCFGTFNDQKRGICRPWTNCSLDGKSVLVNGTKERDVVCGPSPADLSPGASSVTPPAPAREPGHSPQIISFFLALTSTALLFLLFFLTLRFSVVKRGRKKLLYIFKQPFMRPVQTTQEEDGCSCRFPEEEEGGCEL
UniProt P41273, residues 50-254: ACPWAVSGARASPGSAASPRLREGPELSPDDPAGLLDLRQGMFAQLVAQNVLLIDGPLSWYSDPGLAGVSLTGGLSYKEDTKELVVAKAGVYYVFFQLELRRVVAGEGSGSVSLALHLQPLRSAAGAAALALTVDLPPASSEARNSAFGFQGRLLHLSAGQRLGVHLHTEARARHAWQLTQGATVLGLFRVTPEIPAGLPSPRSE

binding: binds
Substance: CD137L-hFc-Biotin (from UniProt P41273 50-254) (Fc fusion)

From article PMC9714380
